# Experimental data published in US9637724B2, “Selective binding of biological targets to solid phase ureides” (AGENCY FOR SCIENCE, TECHNOLOGY AND RESEARCH, priority 2012, dated 2017).
# Tested on: endotoxin
# Test: Endotoxin reduction from an ovalbumin solution
# Details: start about 50 EU/mL
# Protocol: A sample of ovalbumin in 50 mM phosphate, 100 mM NaCl, pH 7.2, contaminated with about 50 EU/mL of endotoxin, was saturated with 3% allantoin, incubated for 15 minutes, following which the precipitate was removed by membrane filtration. Endotoxin content of the supernatant was reduced by more than 95%, to less than 2 EU per mL. The experiment was repeated with 10% allantoin.
structure (smiles),measurement,setting,value
NC(=O)NC1NC(=O)NC1=O (centres unmarked) [allantoin],Endotoxin content of the supernatant,"3% allantoin, 15 minutes",less than 2 EU per mL
same,Endotoxin content of the supernatant,10% allantoin,less than 1 EU/mL
